# B1: HIV-1 Env 459C wild type gp140 (459C WT gp140Fd trimer) (other)
# chain: SASVGNLWVTVYYGVPVWREAKTTLFCASDAKAYDREVHNVWATHACVPTDPNPQEIVLENVTENFNMWKNDMVDQMHEDIISLWDQSLKPCVKLTPLCVTLNCTNVTSSAANVTSNVTNDANNASNANGRNVINEDMQNCSFNATTEIRDRKKEMYALFYKLDIVPLDGEKSDNRYRLINCNTSTLTQACPKVSFDPIPIHYCTPAGFAILKCNNKTFNGTGPCNNVSTVQCTHGIKPVVSTQLLLNGSLAEEDIIIRSENLTNNAKTIIVHLNESVEIVCTRPNNNTRKSIRIGPGQTFYANNDIIGDIRQAHCNISEEKWNNTLHRVWKKLVEHFPNKTTIRFDRHSGGDLEITTHSFNCGGEFFYCNTSGLFNITYNSNYTYNDTKHNGTKVITLPCRIKQIINMWQEVGRAMYAPPIAGNITCTSNITGLLLTRDGGNNSTETETFRPGGGDMRDNWRSELYKYKVVEIKPLGIAPTGAKSSVVERAKSAVGIGAVFLGFLGAAGSTMGAASITLTVQARQLLSGIVQQQSNLLKAIEAQQHLLQLTVWGIKQLQTRVLAIERYLKDQQLLGLWGCSAKLICTTAVPWNSSWSNKSETEIWNNMTWMQWDREINNYTNTIYRLLEESQNQQEKNENDLLALDKWNSLWDWFGISNWLWYIRSRIEGRGSGGYIPEAPRDGQAYVRKDGEWVLLSTFLGHHHHHH
# notes: Soluble gp140-foldon trimer with His-tag, made in 293T cells; also called WT 459C; wild type 459C gp140
# Biological target: T1, Soluble two-domain CD4 (UniProt P01730 26-208)
# T1 construct: domain: soluble two-domain CD4; Immobilized on a CM5 chip (1,000 RU) by amine coupling; also called soluble CD4
# Assay: SPR (Biacore 3000), single-cycle kinetics; CD4 immobilised on a CM5 chip (1,000 RU), gp140 flowed at 62.5 to 1000 nM
binder,measurement,value
B1,binding result,binds

# Source: patent US20200055901A1 (BETH ISRAEL DEACONESS MEDICAL CENTER, published 2020)
